From patent publication US20160068592A1 (SEOUL NATIONAL UNIVERSITY R AND DB FOUNDATION, published 2016)
These are yes or no findings as the source states them, for the method shown. Some binding calls cover weakened binding; strength is not graded here.

Sequences of proteins named here, by UniProt entry; tags and fusion partners are left off. A change or cut given only in a name is not applied to a line headed by its entry.
UniProt P01031: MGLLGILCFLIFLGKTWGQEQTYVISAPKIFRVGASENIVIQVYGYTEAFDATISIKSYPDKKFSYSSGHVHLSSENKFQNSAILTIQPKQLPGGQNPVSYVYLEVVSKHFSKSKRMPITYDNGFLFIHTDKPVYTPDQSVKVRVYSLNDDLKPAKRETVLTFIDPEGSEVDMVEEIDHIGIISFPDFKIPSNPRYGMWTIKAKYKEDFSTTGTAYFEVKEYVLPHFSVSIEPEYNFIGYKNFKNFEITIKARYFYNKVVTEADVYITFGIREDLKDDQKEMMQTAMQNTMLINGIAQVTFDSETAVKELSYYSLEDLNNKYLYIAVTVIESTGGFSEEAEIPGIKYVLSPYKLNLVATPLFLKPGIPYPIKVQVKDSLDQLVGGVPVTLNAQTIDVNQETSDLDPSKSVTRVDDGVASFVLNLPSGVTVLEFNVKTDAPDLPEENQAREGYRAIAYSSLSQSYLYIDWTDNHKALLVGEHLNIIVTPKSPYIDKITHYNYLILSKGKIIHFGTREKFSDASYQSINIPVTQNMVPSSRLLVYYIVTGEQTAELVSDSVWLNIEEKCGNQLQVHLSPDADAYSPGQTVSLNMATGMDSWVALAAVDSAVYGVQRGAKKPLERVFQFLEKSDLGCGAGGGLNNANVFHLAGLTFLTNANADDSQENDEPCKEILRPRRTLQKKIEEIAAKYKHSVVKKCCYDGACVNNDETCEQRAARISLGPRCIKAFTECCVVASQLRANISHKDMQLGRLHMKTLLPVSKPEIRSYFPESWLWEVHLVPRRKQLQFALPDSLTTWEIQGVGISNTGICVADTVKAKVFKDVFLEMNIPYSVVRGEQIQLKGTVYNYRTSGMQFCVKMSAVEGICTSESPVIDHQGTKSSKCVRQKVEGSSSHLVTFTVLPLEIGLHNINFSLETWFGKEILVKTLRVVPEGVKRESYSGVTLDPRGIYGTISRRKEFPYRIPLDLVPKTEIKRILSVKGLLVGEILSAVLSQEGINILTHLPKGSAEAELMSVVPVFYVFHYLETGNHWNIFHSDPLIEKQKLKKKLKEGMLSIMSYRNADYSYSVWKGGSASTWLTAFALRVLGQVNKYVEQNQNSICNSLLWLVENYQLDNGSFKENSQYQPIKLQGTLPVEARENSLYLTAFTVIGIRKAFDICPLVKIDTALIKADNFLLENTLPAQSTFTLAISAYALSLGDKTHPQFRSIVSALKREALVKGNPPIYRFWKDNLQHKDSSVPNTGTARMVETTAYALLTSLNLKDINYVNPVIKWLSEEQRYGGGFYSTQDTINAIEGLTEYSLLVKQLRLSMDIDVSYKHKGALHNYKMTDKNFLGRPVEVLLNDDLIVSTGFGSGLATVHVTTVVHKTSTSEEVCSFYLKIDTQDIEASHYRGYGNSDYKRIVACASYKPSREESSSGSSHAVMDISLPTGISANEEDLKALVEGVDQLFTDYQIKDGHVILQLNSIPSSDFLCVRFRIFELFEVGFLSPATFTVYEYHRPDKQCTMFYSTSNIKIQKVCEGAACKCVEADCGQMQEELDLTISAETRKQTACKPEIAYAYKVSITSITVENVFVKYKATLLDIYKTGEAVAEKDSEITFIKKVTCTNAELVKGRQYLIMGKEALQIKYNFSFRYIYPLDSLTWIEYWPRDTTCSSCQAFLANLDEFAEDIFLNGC

Legend:
[1] = molecular target: MG1-4 Fc fusion protein (human) (UniProt P01031); test: immunoblot (FIG. 11 legend)
[2] = molecular target: MG1-5 Fc fusion protein (human) (UniProt P01031); test: immunoblot (FIG. 11 legend)
[3] = molecular target: MG1-4 Fc fusion protein (human) (UniProt P01031); test: immunoblot of serial deletion mutants of the beta chain as Fc fusion proteins
[4] = molecular target: MG1-5 Fc fusion protein (human) (UniProt P01031); test: as above

Measured: binding

B1: HRA-06-H2-1 (antibody, human IgG2, kappa, V domains shown)
VH: EVQLVESGGGLVQPGGSLRLSCAASGFSFSGRYWIQWVRQAPGKGLEWVASVWPGITGDTNYANWAKGRFTISRDDSKNTLYLQMNSLRAEDTAVYYCAREPVAWGGGLDLWGQGTLVTVSS
VL: DIQMTQSPSSLSASVGDRVTITCQASQSINNQLSWYQQKPGKAPKLLIYYASTLASGVPSRFSGSGSGTDFTLTISSLQPEDFATYYCQGSYYSGGWDYGFGQGTKVEIKR
notes: also called anti-complement C5 antibody HRA-06-H2-1; C5 Antibody (HRA-06-H2-1)
binds: [1] | [2] | [3] | [4]
